Among the data in PubChem BioAssay AID330 (DTP/NCI, 2004) are survivor count and T/C values, retold here.

The experiment concerns P388 leukemia ip, CD2F1 mice, survival T/C. In words: NCI In Vivo Anticancer Drug Screen. Data for tumor model P388 Leukemia (intraperitoneal) in CD2F1 (CDF1) mice. The note with it: T/C endpoint: median survival time, higher T/C = longer survival.
The mark [1] stands for this setting: dose: 50.0 mg/kg/injection, schedule: Q01DX005 (ip), vehicle: saline.
[2] abbreviates: dose: 50.0 mg/kg/injection, schedule: Q01DX009 (ip), vehicle: water.
The mark [3] stands for this setting: dose: 100.0 mg/kg/injection, schedule: Q01DX009 (ip), vehicle: water.
The mark [4] stands for this setting: dose: 100.0 mg/kg/injection, schedule: Q01DX005 (ip), vehicle: saline.
[5] abbreviates: dose: 200.0 mg/kg/injection, schedule: Q01DX005 (ip), vehicle: saline.
[6] abbreviates: dose: 25.0 mg/kg/injection, schedule: Q01DX009 (ip), vehicle: water.

The list is a part of this screen's results and no random one: it gathers tests that were run many times, whatever their T/C, doses with no T/C, and many T/C values between a quarter and a half above the control. Further doses and runs are listed elsewhere. T/C gives the treated animals as a percentage of the vehicle group. Some entries give survivors of the animals treated and no T/C: the source files T/C as zero there, which appears to mark a toxic dose or a test without result, not a measured value. Some survivor counts are full or nearly so, which does not show that the dose was tolerated: the source hardly ever lists a survival T/C far under the control, and the zero likely stands for such cases as well. Counts of survivors are from the toxicity check (mostly the fifth day) where no day follows; animals may have died later. Schedule codes are those of the source, taken here to give the interval after Q, in days (D) or hours (H), and the number of doses after X. Some entries hold several experiments; their values stand side by side, smallest first. For survival time, this PubChem deposit counts one and a half times the control or more as active, and values a quarter to a half above the control carry no call in these data; other NCI protocols may use other cut-offs.

As for `COC(=O)CC1OCC=C2CN3CCC45C6=CC(=O)C(=O)C([N+](=O)[O-])=C6NC4C1C2CC35` (stereo unspecified), the survivor count by setting is: (dose: 30.0 mg/kg/injection, schedule: Q01DX005 (ip), vehicle: suspension in saline) 0 of 6; (dose: 60.0 mg/kg/injection, schedule: Q01DX005 (ip), vehicle: saline) 0 of 6; (dose: 120.0 mg/kg/injection, schedule: Q01DX005 (ip), vehicle: saline) 0 of 6; (dose: 240.0 mg/kg/injection, schedule: Q01DX005 (ip), vehicle: saline) 0 of 6.
Take `c1ccc(-c2c[s+]cs2)cc1`: under “dose: 50.0 mg/kg/injection, schedule: Q01DX009 (ip), vehicle: distilled water + Tween-80”, the T/C is 133 % of control. The survivor count reads like this: (dose: 100.0 mg/kg/injection, schedule: Q01DX009 (ip), vehicle: distilled water + Tween-80) 4 of 6; (dose: 200.0 mg/kg/injection, schedule: Q01DX009 (ip), vehicle: distilled water + Tween-80) 0 of 6; (dose: 400.0 mg/kg/injection, schedule: Q01DX009 (ip), vehicle: distilled water + Tween-80) 0 of 6.
As for `COc1cccc2c1C(CO)N1C(C#N)C3CC(C(=O)O)C(C1C2)N3C` (stereo unspecified), the T/C (dose: 1.57 mg/kg/injection, schedule: Q01DX005 (ip), vehicle: suspension in saline) was 132 % of control; the T/C (dose: 3.12 mg/kg/injection, schedule: Q01DX005 (ip), vehicle: suspension in saline, evaluated on day 19) was 148 % of control; the T/C (dose: 3.12 mg/kg/injection, schedule: Q01DX005 (ip), vehicle: suspension in saline, evaluated on day 30) is 132 % of control; the T/C (dose: 3.13 mg/kg/injection, schedule: Q01DX005 (ip), vehicle: suspension in saline) is 131 % of control; the T/C (dose: 6.25 mg/kg/injection, schedule: Q01DX005 (ip), vehicle: suspension in saline) is 148 % of control. For the same molecule, the survivor count reads like this: (dose: 25.0 mg/kg/injection, schedule: Q01DX005 (ip), vehicle: suspension in saline) 5 of 6; under setting [1], 6 of 6; (dose: 50.0 mg/kg/injection, schedule: Q01DX005 (ip), vehicle: suspension in saline) 1 of 6 and 6 of 6.
Consider `O=NN(CCOCCCl)C(=O)NC1CCCCC1`, for which the T/C reads like this: under setting [2], 125 % of control; under setting [3], 136 % of control.
Take `Nc1nc(N)c2cc(N3CCCC3c3ccc(Cl)cc3)ccc2n1` (stereo unspecified): the survivor count was 0 of 6, 3 of 6, 6 of 6 (dose: 12.5 mg/kg/injection, schedule: Q01DX009 (ip), vehicle: Klucel (hydroxypropylcellulose) (HPC)) and 0 of 6 (dose: 25.0 mg/kg/injection, schedule: Q01DX009 (ip), vehicle: Klucel (hydroxypropylcellulose) (HPC)).
In the case of `C1=CC2C(O1)OC2c1ccc2ccccc2c1` (stereo unspecified), the survivor count runs as follows: (dose: 30.0 mg/kg/injection, schedule: Q01DX005 (ip), vehicle: Klucel + Tween-80) 6 of 6; (dose: 120.0 mg/kg/injection, schedule: Q01DX005 (ip), vehicle: Klucel + Tween-80) 0 of 6; (dose: 240.0 mg/kg/injection, schedule: Q01DX005 (ip), vehicle: Klucel + Tween-80) 0 of 6.
Take `C(=Nc1ccccc1-c1ccccc1N=Cc1ccccc1)c1ccccc1`: the survivor count was 6 of 6 (dose: 3.12 mg/kg/injection, schedule: Q01DX009 (ip), vehicle: saline); 6 of 6 (dose: 12.5 mg/kg/injection, schedule: Q01DX009 (ip), vehicle: saline with Tween-80); 5 of 6 (dose: 50.0 mg/kg/injection, schedule: Q01DX009 (ip), vehicle: saline).
As to `O=C(O)C[n+]1ccccc1`, the survivor count (dose: 25.0 mg/kg/injection, schedule: Q01DX009 (ip), vehicle: saline) was 6 of 6.
With `CCN(CC)CC(C)(O)CNc1cc(OC)cc2cccnc12` (stereo unspecified), the survivor count is 0 of 5 under setting [4] and 0 of 5 under setting [5].
Regarding `O=NNc1ccc(S(=O)(=O)c2ccc3ccccc3c2)cn1`, the survivor count is, setting by setting: under setting [6], 6 of 6; under setting [2], 6 of 6; under setting [3], 0 of 6.
As for `O=NNc1ccc(Br)cn1`, the T/C (dose: 3.0 mg/kg/injection, schedule: Q01DX008 (ip), vehicle: water) is 125 % of control; the T/C (dose: 3.12 mg/kg/injection, schedule: Q01DX009 (ip), vehicle: water) was 128 % of control; the T/C (dose: 6.25 mg/kg/injection, schedule: Q01DX009 (ip), vehicle: water) was 145 % of control. In addition, the survivor count under setting [6] is listed as 6 of 6.
For the molecule `N=C(N)SCCN1C(=O)NC(c2ccccc2)(c2ccccc2)C1=O`, the survivor count (dose: 400.0 mg/kg/injection, schedule: Q04DX003 (ip), vehicle: Klucel (hydroxypropylcellulose) (HPC)) is given as 2 of 6.
As to `C/C=C1\CN2CCC34c5ccc(OC)cc5N(C)C3C2CC1C4C(=O)OC` (stereo unspecified), the survivor count (dose: 69.0 mg/kg/injection, schedule: Q01DX005 (ip), vehicle: acid diluted with saline) was 0 of 6 and the survivor count (dose: 138.0 mg/kg/injection, schedule: Q01DX005 (ip), vehicle: acid diluted with saline) is listed as 0 of 6.
Take `CC1(C)N=C(N)N=C(N)N1c1ccc(Cl)cc1Cl`: the survivor count by setting is: under setting [4], 0 of 5; under setting [5], 0 of 5.
For the molecule `C=CCC(C=C=CCN(C)C)CO` (stereo unspecified), the survivor count under setting [5] was 0 of 6.
For the molecule `COC(=O)/C(C)=C/C1N=C1c1ccccc1` (stereo unspecified), the survivor count (dose: 200.0 mg/kg/injection, schedule: Q01DX001 (ip), vehicle: saline with Tween-80) is 2 of 6.
`COc1nc(N(C)C)c2cnn(C3CCCCO3)c2n1` (stereo unspecified): the survivor count (dose: 50.0 mg/kg/injection, schedule: Q04DX002 (ip), vehicle: saline with Tween-80) is given as 5 of 6; the survivor count (dose: 100.0 mg/kg/injection, schedule: Q04DX002 (ip), vehicle: saline with Tween-80) is 1 of 6; the survivor count (dose: 200.0 mg/kg/injection, schedule: Q04DX002 (ip), vehicle: saline with Tween-80) is recorded as 1 of 6; the survivor count (dose: 400.0 mg/kg/injection, schedule: Q04DX002 (ip), vehicle: saline with Tween-80) was 3 of 6.
`COc1ccc2cc3c[n+](C)ccc3cc2c1OC`: the survivor count is on record as 1 of 6 under setting [2]; 3 of 6 under setting [3]; 0 of 6 (dose: 200.0 mg/kg/injection, schedule: Q01DX009 (ip), vehicle: water).
For the molecule `COC12CCCC3(OCCO3)C1C(Cl)C2Cl` (stereo unspecified), where the note is “dose: 240.0 mg/kg/injection, schedule: Q01DX005 (ip), vehicle: saline with Tween-80”, the survivor count was 6 of 6.
Take `CC1=C[P+](c2ccccc2)(c2ccccc2)C=C(C)O1`: the survivor count reads like this: (dose: 12.5 mg/kg/injection, schedule: Q01DX005 (ip), vehicle: saline) 2 of 5; (dose: 25.0 mg/kg/injection, schedule: Q01DX005 (ip), vehicle: saline) 0 of 5; under setting [1], 0 of 5.
Take `CCOC(=O)/N=[N+](\[O-])c1cccc(Br)c1`: the survivor count is 1 of 6 (dose: 200.0 mg/kg/injection, schedule: Q01DX001 (ip), vehicle: Klucel (hydroxypropylcellulose) (HPC)) and 0 of 6 (dose: 400.0 mg/kg/injection, schedule: Q01DX001 (ip), vehicle: Klucel (hydroxypropylcellulose) (HPC)).
Consider `COc1ccc2c(c1)[nH]c1c(/C=C/c3ccc([N+](=O)[O-])cc3)nccc12`, for which the survivor count is, setting by setting: (dose: 60.0 mg/kg/injection, schedule: Q01DX005 (ip), vehicle: Klucel (hydroxypropylcellulose) (HPC)) 6 of 6; (dose: 120.0 mg/kg/injection, schedule: Q01DX005 (ip), vehicle: Klucel (hydroxypropylcellulose) (HPC)) 6 of 6.
Regarding `O=[N+]([O-])c1ccc(-c2csc(Nc3ccccn3)n2)o1`, the survivor count by setting is: (dose: 100.0 mg/kg/injection, schedule: Q01DX005 (ip), vehicle: saline with Tween-80) 5 of 6; (dose: 200.0 mg/kg/injection, schedule: Q01DX005 (ip), vehicle: saline with Tween-80) 6 of 6.
On to `CCN(Cc1cccc(S(=O)(=O)O)c1)c1ccc(C(=C2C=CC(=[N+](CC)Cc3cccc(S(=O)(=O)O)c3)C=C2)c2ccccc2)cc1`, for which the survivor count (dose: 400.0 mg/kg/injection, schedule: Q01DX005 (ip), vehicle: saline) is on record as 1 of 6.
